Data taken from PMC10164591, “RNA binding proteins Smaug and Cup induce CCR4–NOT-dependent deadenylation of the nanos mRNA in a reconstituted system”.
Results are given in words; binding and its absence hold for the method and conditions named. Some binding calls cover weakened binding; strength is not graded here. For part of these data: Tags and fused reporters may be left off the sequences shown. Values belong to the binder of their own block, whether it stands above or below them.

Tests used:
[1] = target: T1, Smaug (split-ubiquitin two-hybrid bait) (D. melanogaster) (UniProt Q23972); assay: two-hybrid; split-ubiquitin yeast two-hybrid, NMY51 cells, Smaug as bait; growth on SC agar lacking Trp, Leu, His and adenine, three days
T1 sequence: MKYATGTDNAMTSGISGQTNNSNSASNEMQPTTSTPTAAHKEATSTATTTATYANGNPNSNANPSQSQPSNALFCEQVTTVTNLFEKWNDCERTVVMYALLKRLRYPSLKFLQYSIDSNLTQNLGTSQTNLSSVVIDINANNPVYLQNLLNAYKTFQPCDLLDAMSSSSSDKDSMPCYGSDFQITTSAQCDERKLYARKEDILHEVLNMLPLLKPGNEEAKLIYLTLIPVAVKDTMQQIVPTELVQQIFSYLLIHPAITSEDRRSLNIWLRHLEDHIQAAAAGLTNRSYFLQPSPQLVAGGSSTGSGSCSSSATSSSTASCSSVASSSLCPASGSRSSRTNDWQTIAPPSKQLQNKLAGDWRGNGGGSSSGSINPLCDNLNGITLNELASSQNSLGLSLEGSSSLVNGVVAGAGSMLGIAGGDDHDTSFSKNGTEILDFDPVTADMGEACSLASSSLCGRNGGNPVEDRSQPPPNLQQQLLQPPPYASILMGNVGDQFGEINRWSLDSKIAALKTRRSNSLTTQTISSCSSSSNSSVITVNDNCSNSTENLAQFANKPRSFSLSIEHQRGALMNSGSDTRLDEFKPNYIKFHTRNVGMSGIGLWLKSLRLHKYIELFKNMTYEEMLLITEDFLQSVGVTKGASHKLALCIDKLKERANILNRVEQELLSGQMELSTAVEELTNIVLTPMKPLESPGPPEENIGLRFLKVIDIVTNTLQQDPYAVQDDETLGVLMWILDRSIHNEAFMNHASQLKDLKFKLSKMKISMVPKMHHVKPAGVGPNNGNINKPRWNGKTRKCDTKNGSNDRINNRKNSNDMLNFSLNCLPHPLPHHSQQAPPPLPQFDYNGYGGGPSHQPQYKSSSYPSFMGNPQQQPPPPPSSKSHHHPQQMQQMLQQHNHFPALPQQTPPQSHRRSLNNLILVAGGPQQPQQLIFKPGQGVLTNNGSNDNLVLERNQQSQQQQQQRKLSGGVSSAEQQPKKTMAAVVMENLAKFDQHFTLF

[2] = target: NOT1 fused with mCherry and the PH domain of rat phospholipase Cδ1 (D. melanogaster) (UniProt A8DY81); assay: ReLo (relocalization) assay; Drosophila S2R+ cells co-transfected with pAc5.1 plasmids; bait on the plasma membrane through a PH domain, prey with a fluorescent tag; live confocal fluorescence microscopy after two days
[3] = target: T2, NOT2 fused with mCherry and the PH domain of rat phospholipase Cδ1 (D. melanogaster), Q94547; assay: as above; details: remark: other sources report otherwise
T2 chain: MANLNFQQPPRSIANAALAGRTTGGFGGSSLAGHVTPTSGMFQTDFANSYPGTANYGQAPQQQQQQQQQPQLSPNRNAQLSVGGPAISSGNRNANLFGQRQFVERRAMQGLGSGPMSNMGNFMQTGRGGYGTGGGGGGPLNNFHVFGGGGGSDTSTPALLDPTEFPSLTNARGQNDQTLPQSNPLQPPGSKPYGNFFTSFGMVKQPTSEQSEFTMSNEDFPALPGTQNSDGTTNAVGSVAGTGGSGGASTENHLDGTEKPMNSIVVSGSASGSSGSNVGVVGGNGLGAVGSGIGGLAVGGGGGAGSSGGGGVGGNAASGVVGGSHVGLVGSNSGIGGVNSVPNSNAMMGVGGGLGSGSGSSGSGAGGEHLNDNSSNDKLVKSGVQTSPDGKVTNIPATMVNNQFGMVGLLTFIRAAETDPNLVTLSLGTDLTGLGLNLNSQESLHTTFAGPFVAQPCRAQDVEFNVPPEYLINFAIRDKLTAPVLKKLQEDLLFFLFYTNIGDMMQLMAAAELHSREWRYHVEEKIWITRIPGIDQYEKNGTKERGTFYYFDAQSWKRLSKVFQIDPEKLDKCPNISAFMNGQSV

binding [1]: binds
B1: NOT1 fragment comprising amino acids 752–910 (split-ubiquitin two-hybrid prey) (domain or fragment, UniProt A8DY81 752-910)
chain: NVAIMANKARAQQQQQPGLVPPPPPTILRGHRGMDLPGGIVPPPPQQPFSGNLNAQMFGPGMDPLTNMSNNLAGLNLSGPNGAFNFGNMLTSPSRLMTPGANPYPLNLMQMPQAPPPPNVGNLGRMLPGGPQQQTPTPTPTAPNPNNPVMADLQIPVSK

binding [2]: no binding
B2: EGFP-Smaug (protein, UniProt Q23972 1-999)
chain: T1 sequence

binding [3]: no binding
B3: EGFP-Smaug, Q23972 1-999 (protein)
chain: T1 sequence
